Results deposited as PubChem BioAssay AID1259405 (NCATS, 2018).
Screen: 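Silenced genes that increase secreted GFP made by CHO cells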 (primary screen). Cells: Chinese hamster CHO-K1 ovary cells with stable secreted eGFP expression. Reagents: single siRNA against mouse genes, 0.8 pmol siRNA per well (2 µl of 400 nM stock). Duration: 3 days. Measured: 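Per-well intracellular GFP measured by laser scanning cytometry, plus viability from ATP luminescence, each relative to plate median of non-targeting control wells, in %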. Scale: GFP, % of control: higher = more GFP per well, higher productivity; viability (ATP), % of control: higher = more viable cells (more ATP). Rule for the call: 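Called active when intracellular GFP, relative to negative control, is at or above 120%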.
Here is a random part of about 50,000 reagents. About 4,000 of them (8%) count as active. 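Mouse siRNA library applied to hamster cells; one well for each siRNA.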 Unmarked entries are inactive.

Urgcp [SID363543517] gave GFP, % of control 81.7; viability (ATP), % of control 95.1.
Urgcp [SID363553010] showed GFP, % of control 63.4; viability (ATP), % of control 54.6.
After knock-down of Urgcp [SID363558858], the record shows GFP, % of control 58.4; viability (ATP), % of control 83.3.
Knock-down of Phgdh [SID363575262] resulted in: GFP, % of control 132 (active); viability (ATP), % of control 123.
For Phgdh [SID363580894], the entry reads GFP, % of control 78.8; viability (ATP), % of control 71.7.
Against Phgdh [SID363583006], the entry reads GFP, % of control 62.2; viability (ATP), % of control 87.6.
With knock-down of Clic1 [SID363574550], the record shows GFP, % of control 81; viability (ATP), % of control 69.9.
Clic1 [SID363575606] scored GFP, % of control 47.1; viability (ATP), % of control 80.4.
Silencing of Clic1 [SID363580182] came out at: GFP, % of control 48; viability (ATP), % of control 51.7.
With knock-down of Or5an10 [SID363544520], the record shows GFP, % of control 46.7; viability (ATP), % of control 39.
Silencing of Or5an10 [SID363550848] came out at: GFP, % of control 62.1; viability (ATP), % of control 62.2.
Silencing of Or5an10 [SID363557397] gave: GFP, % of control 107; viability (ATP), % of control 67.3.
Nipsnap2 [SID363553555] showed GFP, % of control 52; viability (ATP), % of control 59.8.
Against Nipsnap2 [SID363561512], the values are GFP, % of control 49.2; viability (ATP), % of control 37.3.
For Nipsnap2 [SID363565250], the entry reads GFP, % of control 83.5; viability (ATP), % of control 73.8.
After knock-down of Gm4894 [SID363542774] the results were GFP, % of control 57.6; viability (ATP), % of control 43.4.
Silencing of Gm4894 [SID363546291] gave: GFP, % of control 81.3; viability (ATP), % of control 100.
After knock-down of Gm4894 [SID363548047], the screen gave GFP, % of control 58.2; viability (ATP), % of control 77.9.
